The values that follow come from paper PMC8376021.

Chains of the proteins cited; added tags and fusions are not shown. Lines headed by an entry give the natural chain unless they say otherwise; changes in a name come on top. A line that says so, or that is headed by a name, gives the form on record, which may keep a tag or linker.
Myc-tagged human PML, isoform VI (P29590-4, form named): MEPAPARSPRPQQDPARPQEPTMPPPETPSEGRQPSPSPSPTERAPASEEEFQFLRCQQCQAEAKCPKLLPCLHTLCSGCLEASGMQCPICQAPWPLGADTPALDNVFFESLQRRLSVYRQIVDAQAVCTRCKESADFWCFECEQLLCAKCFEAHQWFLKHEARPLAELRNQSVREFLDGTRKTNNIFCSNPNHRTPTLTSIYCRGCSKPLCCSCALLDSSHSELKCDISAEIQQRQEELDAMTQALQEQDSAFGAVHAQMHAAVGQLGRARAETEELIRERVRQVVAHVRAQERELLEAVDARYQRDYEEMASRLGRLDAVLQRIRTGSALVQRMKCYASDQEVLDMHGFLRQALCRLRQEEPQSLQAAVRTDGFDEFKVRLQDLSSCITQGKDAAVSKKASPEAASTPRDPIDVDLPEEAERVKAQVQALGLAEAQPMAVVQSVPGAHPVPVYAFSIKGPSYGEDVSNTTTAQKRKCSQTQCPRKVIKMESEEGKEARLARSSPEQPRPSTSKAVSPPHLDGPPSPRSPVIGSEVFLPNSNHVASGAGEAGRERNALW

Like-named read-outs stand apart in the source and are kept apart here. Results are given in words; binding and its absence hold for the method and conditions named. In cells and extracts the contact can be indirect. For part of these data: Binding calls can cover weak binding; strength is not graded here. For part of these data: Sequences can lack the tags named with a protein.

Common to all, as to test: co-IP; HEK293T co-transfected with FLAG-tagged IE1 variants and Myc-tagged PML variants; lysis in CoIP buffer (50 mM Tris-HCl pH 8.0, 150 mM NaCl, 5 mM EDTA, 0.5% NP-40); IP with anti-FLAG M2 on protein-A-sepharose, 2 h at 4°C; co-precipitated PML detected by Western blot
On the technique in general: In western blotting, separated proteins are transferred to a membrane and probed.

For test [1], the target named is FLAG-tagged ratIE1 1-392 (N-terminally extended ratIE1 core) (rat cytomegalovirus) (UniProt K7XWE8).
Test [2] has as its target FLAG-tagged ratIE1 (rat cytomegalovirus) (UniProt K7XWE8).
Test [3] has as its target FLAG-tagged ratIE1 1-392 (N-terminally extended ratIE1 core) (rat cytomegalovirus) (UniProt K7XWE8). This is another data set of the same source.

On to “Myc-tagged human PML, isoform VI (from UniProt P29590-4 1-560)”, for which the binding entry in test [1] is reported as “no binding”.

B1: Myc-tagged full-length rat PML (protein, UniProt F1M589 1-934)
chain: MNSAPVGGPPEKRPNPEIETEPGSTQKAPAPSGSLCQQLDPALIPTPTMPPPEEPSEDHEHSQSPAEQAIKEEFQFLRCPGCQTQAKCPKLLPCLHTLCSGCLEAPGLQCPICQAPGSANANAEALDNVFFESLQRRLAVFRQIVDAQAACTRCKELADFWCFECEQLMCGKCFDAHQWYLKHEARPLAELRDNSVREFLDSTRKSNIFCSNTNHRTPAQTNIYCRGCAKPLCCECALLDRNHSHLQCEIGKEIQQLHEELGTMTQALEEQGRTFDSAHAQMHSAIGQLDDARSDTEKQIRARVRQVIEHVQAQERELLEAVNVRYQRDYQEIAGQLGHLEAVLQRIRTGGALVKRMKLYASEQEVLDMHGFLRKALCRLRQEEPQNHKVQLRTSGFEEFKLCLQDLVSFITQRTDVAVAGRASPEAASTHPEAASAQPEAASTHPEAASAQPEAASAHPESASTPGNSTDLEQPKEVQRAQAQAMELSKTQPVAMVKSVPGAHPVPVYAFSMQGPTYREEASQTVSPMKRKCCHIDCCRKIIKMESTDENEDRLSTSSPEQPRPSTSKAISPPHPDGTSSTESTIPEKETPLPNNNHVASDAGETEERIVVISSSEDSDAENLPSHELDDSSSESSSIQLEGPNSLKALDESLAEPHLEDRTLVFFDLKIDNETQKISQLAAVNRESKFRVLIQPEAFSVYSKAVSLESGLQHFLSFLNSMHRPLLACPRLWGPGLPIFFQALNDINKLWEFQDAISGFLAVLPLIQERIPSASSFKLRNLAKTYLARNMSERSALAAVLAMRDLCCLLEVSPGLQLAQHIYSFSSLQCFASLQPLIQAQVLPQPEARLLALHNVSFLELLTAYRSNRQEGLKKYVHYLSLQTTPSSASTQIAQFLQALSAYMDGQLEGHIPAGAEGTALSLSGRAENKGCLA
With B1, the binding result in test [2] and in test [3] was “binds” throughout.
